PubChem BioAssay AID652259 | Drosophila RNAi Screening Center | 2013

Aim: 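Knock-downs that push a Wingless-driven reporter up or down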 (primary screen)
Cell system: Drosophila clone 8 imaginal disc epithelial cells
Reagents: long dsRNA against Drosophila genes
Challenge: pathway stimulated by co-transfected Wingless expression plasmid
Detection: 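Firefly luciferase from a tcf-site Wingless reporter, measured alongside co-transfected Renilla luciferase that tracks transfection; pathway stimulated by a Wingless plasmid; the firefly-to-Renilla ratio is not deposited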
Direction: firefly reporter light: higher = more Wg reporter light, before normalisation; Renilla control light: higher = more transfected or surviving cells
Call rule: 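Strong candidates differ from their plate mean by at least two out of four per-plate statistical tests; weak candidates meet just one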
Calls: active = candidate regulator (raises or lowers reporter); inactive = not a candidate
The screen tested about 22,000 reagents; below is a random part of those with a known target gene and a result. In the full data, 233 (1.1%) were called active. 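Light values are raw, unnormalised plate reads; the ratio scores behind the reporter calls were not deposited.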 The numbers tell different reagents against one gene apart. A plus sign joins genes that one reagent is predicted to hit. Not stated in the record: the amount of reagent, the time to read-out, the dose of the treatment.

no.	gene knocked down	dsRNA no.	firefly reporter light, replicate 1	firefly reporter light, replicate 2	Renilla control light, replicate 1	Renilla control light, replicate 2	call
1	CG4318	1	19904		10211		inactive
2	Not10	1	4854		2344		inactive
3	hydra	1	17043		9105		inactive
4	trv	1	4176		1842		inactive
5	trv	2	9634		2193		inactive
6	trv	3	8940		3849		inactive
7	trv	4	12121		4871		inactive
8	AsnRS	1	7846		2388		inactive
9	AstA-R1	1	4930		1447		inactive
10	AstA-R1	2	15906		11696		inactive
11	Apc2	1	1824	5996	908	2131	inactive
12	Rbp6	1	3609		1243		inactive
13	Rbp6	2	4235		1276		inactive
14	Rbp6	3	7994		2821		inactive
15	Rbp6	4	8598		3197		inactive
16	Rbp6	5	6588		2040		inactive
17	CG10616	1	5249		2032		inactive
18	CG30371	1	1744	6585	550	2491	inactive
19	CG6701	1	4454		2274		inactive
20	spz4	1	2294	5024	674	2901	inactive
21	CG11865	1	2066	3609	1046	2247	inactive
22	eIF4E4	1	580	3232	800	2233	inactive
23	CG9921	1	4149		1362		inactive
24	Afg3l2	1	4268		1657		inactive
25	CG10307	1	8368		2356		inactive
26	Yp1	1	33724		7928		inactive
27	Ugt301D1	1	3800	7480	1244	2962	inactive
28	128up	1	7580		2466		inactive
29	Cpr72Ec	1	5590		2172		inactive
30	CG4199	1	2420	4241	887	2108	inactive
31	CG4199	2	4.12e5	4.89e5	2.70e5	2.01e5	inactive
32	epsilonCOP	1	10544		6193		inactive
33	CG5504	1	10288		2840		inactive
34	Gr2a	1	22349		19147		inactive
35	CG8097	1	18378		7589		inactive
36	CG31195	1	2890		1595		inactive
37	CG42307 + mus312	1	2716	10792	1308	4731	inactive
38	px	1	5120		769		inactive
39	RabGGTb	1	11506		4342		inactive
40	CG2225	1	7563		2132		inactive
41	CG2225	2	2971	7817	645	2900	inactive
42	crc	1	3261	7005	979	3063	inactive
43	Cnb	1	13719		4720		inactive
44	Gr93a	1	38096		6067		inactive
45	CG4704	1	16409		15042		inactive
46	ND-SGDH	1	6919		2368		inactive
47	elgi	1	7568		1747		inactive
48	Mabi	1	4945	9931	2051	4726	inactive
49	ncm	1	10114		1770		inactive
50	Rsph4a	1	21944		6404		inactive
51	CadN2	1	2560	9333	1224	5036	inactive
52	CadN2	2	2633	8054	944	4000	inactive
53	CadN2	3	2775	8544	842	3746	inactive
54	CG7194	1	1530	5762	1184	2544	inactive
55	Miro	1	3216	5847	1344	2276	inactive
56	CG43101	1	19405		13965		inactive
57	Debcl	1	13729		4284		inactive
58	fsd	1	6070		2633		inactive
59	CG32713	1	8.76e5	7.78e5	3.92e5	2836	inactive
60	Ucp4B + asRNA:CR43465	1	3296	4613	1088	1889	inactive
61	Taf5	1	22013		2893		inactive
62	CG31663	1	26913		13239		inactive
63	CG31663	2	14736		6840		inactive
64	CG31663	3	5141		1804		inactive
65	CG31663	4	3228	8994	1364	3512	inactive
66	CG30373	1	16086		9090		inactive
67	CG3358	1	17254		5296		inactive
68	upd2	1	24768	8.24e5	12947	3.99e5	inactive
69	Alg14	1	20572		7744		inactive
70	sut4	1	8317		3265		inactive
71	Cpr47Ed	1	5403		2226		inactive
72	CG9171	1	17272		8480		inactive
73	CG9171	2	4.79e5	3.74e5	1.86e5	1.58e5	inactive
74	CG43187	1	26253		12888		inactive
75	mora	1	17377		13786		inactive
76	trn	1	6040		2976		inactive
77	CG5355	1	9586		1191		inactive
78	Adh + Adhr	1	6976		1946		inactive
79	Adh + Adhr	2	3698	7109	1575	3954	inactive
80	Fam92	1	9448		3243		inactive
81	Clic	1	3449	7088	770	3236	inactive
82	RpS24	1	3109	6400	717	3297	inactive
83	CG31058 (retired record)	1	4887		826		inactive
84	maf-S	1	4036		2426		inactive
85	CG3679	1	1867	5794	1009	2930	inactive
86	Oli	1	9793		2928		inactive
87	CNT2	1	7362		2756		inactive
88	betaNACtes3	1	24664		10180		inactive
89	Rnmt	1	2884	4448	1111	2038	inactive
90	prod	1	12497		3744		inactive
91	CG7054	1	2299	8023	1313	2521	inactive
92	Lcp3	1	2816	8506	1050	2680	inactive
93	CG15563	1	7441		3174		inactive

15 entries from above, sorted by “firefly reporter light, replicate 1”, low to high:
gene knocked down	dsRNA no.	firefly reporter light, replicate 1	firefly reporter light, replicate 2	Renilla control light, replicate 1	Renilla control light, replicate 2	call
CG3679	1	1867	5794	1009	2930	inactive
RpS24	1	3109	6400	717	3297	inactive
Clic	1	3449	7088	770	3236	inactive
Adh + Adhr	2	3698	7109	1575	3954	inactive
maf-S	1	4036		2426		inactive
CG31058 (retired record)	1	4887		826		inactive
Cpr47Ed	1	5403		2226		inactive
trn	1	6040		2976		inactive
Adh + Adhr	1	6976		1946		inactive
Fam92	1	9448		3243		inactive
CG5355	1	9586		1191		inactive
CG9171	1	17272		8480		inactive
mora	1	17377		13786		inactive
CG43187	1	26253		12888		inactive
CG9171	2	4.79e5	3.74e5	1.86e5	1.58e5	inactive
